Measurements as given in patent publication US12521402B2, “Biomarker and drug combinations for heart failure prediction” (Endothelium Scanning Nanotechnology Limited, priority 2022, dated 2026).

B1: TAGL2 (protein, UniProt P37802 2-199, looked up)
Transgelin-2: ANRGPAYGLSREVQQKIEKQYDADLEQILIQWITTQCRKDVGRPQPGRENFQNWLKDGTVLCELINALYPEGQAPVKKIQASTMAFKQMEQISQFLQAAERYGINTTDIFQTVDLWEGKNMACVQRTLMNLGGLAVARDDGLFSGDPNWFPKKSKENPRNFSDNQLQEGKNVIGLQMGTNRGASQAGMTGYGMPRQIL
B2: FUT6 (protein, UniProt P51993 1-359, looked up)
4-galactosyl-N-acetylglucosami …: MDPLGPAKPQWSWRCCLTTLLFQLLMAVCFFSYLRVSQDDPTVYPNGSRFPDSTGTPAHSIPLILLWTWPFNKPIALPRCSEMVPGTADCNITADRKVYPQADAVIVHHREVMYNPSAQLPRSPRRQGQRWIWFSMESPSHCWQLKAMDGYFNLTMSYRSDSDIFTPYGWLEPWSGQPAHPPLNLSAKTELVAWAVSNWGPNSARVRYYQSLQAHLKVDVYGRSHKPLPQGTMMETLSRYKFYLAFENSLHPDYITEKLWRNALEAWAVPVVLGPSRSNYERFLPPDAFIHVDDFQSPKDLARYLQELDKDHARYLSYFRWRETLRPRSFSWALAFCKACWKLQEESRYQTRGIAAWFT
B3: FBLN3 (protein, UniProt Q12805 18-493, looked up)
EGF-containing fibulin-like …: QDTEETITYTQCTDGYEWDPVRQQCKDIDECDIVPDACKGGMKCVNHYGGYLCLPKTAQIIVNNEQPQQETQPAEGTSGATTGVVAASSMATSGVLPGGGFVASAAAVAGPEMQTGRNNFVIRRNPADPQRIPSNPSHRIQCAAGYEQSEHNVCQDIDECTAGTHNCRADQVCINLRGSFACQCPPGYQKRGEQCVDIDECTIPPYCHQRCVNTPGSFYCQCSPGFQLAANNYTCVDINECDASNQCAQQCYNILGSFICQCNQGYELSSDRLNCEDIDECRTSSYLCQYQCVNEPGKFSCMCPQGYQVVRSRTCQDINECETTNECREDEMCWNYHGGFRCYPRNPCQDPYILTPENRCVCPVSNAMCRELPQSIVYKYMSIRSDRSVPSDIFQIQATTIYANTINTFRIKSGNENGEFYLRQTSPVSAMLVLVKSLSGPREHIVDLEMLTVSSIGTFRTSSVLRLTIIVGPFSF
B4: CAND1 (protein, UniProt Q86VP6 2-1230, looked up)
Cullin-associated …: ASASYHISNLLEKMTSSDKDFRFMATNDLMTELQKDSIKLDDDSERKVVKMILKLLEDKNGEVQNLAVKCLGPLVSKVKEYQVETIVDTLCTNMLSDKEQLRDISSIGLKTVIGELPPASSGSALAANVCKKITGRLTSAIAKQEDVSVQLEALDIMADMLSRQGGLLVNFHPSILTCLLPQLTSPRLAVRKRTIIALGHLVMSCGNIVFVDLIEHLLSELSKNDSMSTTRTYIQCIAAISRQAGHRIGEYLEKIIPLVVKFCNVDDDELREYCIQAFESFVRRCPKEVYPHVSTIINICLKYLTYDPNYNYDDEDEDENAMDADGGDDDDQGSDDEYSDDDDMSWKVRRAAAKCLDAVVSTRHEMLPEFYKTVSPALISRFKEREENVKADVFHAYLSLLKQTRPVQSWLCDPDAMEQGETPLTMLQSQVPNIVKALHKQMKEKSVKTRQCCFNMLTELVNVLPGALTQHIPVLVPGIIFSLNDKSSSSNLKIDALSCLYVILCNHSPQVFHPHVQALVPPVVACVGDPFYKITSEALLVTQQLVKVIRPLDQPSSFDATPYIKDLFTCTIKRLKAADIDQEVKERAISCMGQIICNLGDNLGSDLPNTLQIFLERLKNEITRLTTVKALTLIAGSPLKIDLRPVLGEGVPILASFLRKNQRALKLGTLSALDILIKNYSDSLTAAMIDAVLDELPPLISESDMHVSQMAISFLTTLAKVYPSSLSKISGSILNELIGLVRSPLLQGGALSAMLDFFQALVVTGTNNLGYMDLLRMLTGPVYSQSTALTHKQSYYSIAKCVAALTRACPKEGPAVVGQFIQDVKNSRSTDSIRLLALLSLGEVGHHIDLSGQLELKSVILEAFSSPSEEVKSAASYALGSISVGNLPEYLPFVLQEITSQPKRQYLLLHSLKEIISSASVVGLKPYVENIWALLLKHCECAEEGTRNVVAECLGKLTLIDPETLLPRLKGYLISGSSYARSSVVTAVKFTISDHPQPIDPLLKNCIGDFLKTLEDPDLNVRRVALVTFNSAAHNKPSLIRDLLDTVLPHLYNETKVRKELIREVEMGPFKHTVDDGLDIRKAAFECMYTLLDSCLDRLDIFEFLNHVEDGLKDHYDIKMLTFLMLVRLSTLCPSAVLQRLDRLVEPLRATCTTKVKANSVKQEFEKQDELKRSAMRAVAALLTIPEAEKSPLMSEFQSQISSNPELAAIFESIQKDSSSTNLESMDTS
B5: FLOT2 (protein, UniProt Q14254 2-428, looked up)
Flotillin-2: GNCHTVGPNEALVVSGGCCGSDYKQYVFGGWAWAWWCISDTQRISLEIMTLQPRCEDVETAEGVALTVTGVAQVKIMTEKELLAVACEQFLGKNVQDIKNVVLQTLEGHLRSILGTLTVEQIYQDRDQFAKLVREVAAPDVGRMGIEILSFTIKDVYDKVDYLSSLGKTQTAVVQRDADIGVAEAERDAGIREAECKKEMLDVKFMADTKIADSKRAFELQKSAFSEEVNIKTAEAQLAYELQGAREQQKIRQEEIEIEVVQRKKQIAVEAQEILRTDKELIATVRRPAEAEAHRIQQIAEGEKVKQVLLAQAEAEKIRKIGEAEAAVIEAMGKAEAERMKLKAEAYQKYGDAAKMALVLEALPQIAAKIAAPLTKVDEIVVLSGDNSKVTSEVNRLLAELPASVHALTGVDLSKIPLIKKATGVQV
B6: PIPNA (protein, UniProt Q00169 2-270, looked up)
Phosphatidylinositol transfer …: VLLKEYRVILPVSVDEYQVGQLYSVAEASKNETGGGEGVEVLVNEPYEKDGEKGQYTHKIYHLQSKVPTFVRMLAPEGALNIHEKAWNAYPYCRTVITNEYMKEDFLIKIETWHKPDLGTQENVHKLEPEAWKHVEAVYIDIADRSQVLSKDYKAEEDPAKFKSIKTGRGPLGPNWKQELVNQKDCPYMCAYKLVTVKFKWWGLQNKVENFIHKQERRLFTNFHRQLFCWLDKWVDLTMDDIRRMEEETKRQLDEMRQKDPVKGMTADD
B7: CBR1 (protein, UniProt P16152 2-277, looked up)
Carbonyl reductase [NADPH] 1: SSGIHVALVTGGNKGIGLAIVRDLCRLFSGDVVLTARDVTRGQAAVQQLQAEGLSPRFHQLDIDDLQSIRALRDFLRKEYGGLDVLVNNAGIAFKVADPTPFHIQAEVTMKTNFFGTRDVCTELLPLIKPQGRVVNVSSIMSVRALKSCSPELQQKFRSETITEEELVGLMNKFVEDTKKGVHQKEGWPSSAYGVTKIGVTVLSRIHARKLSEQRKGDKILLNACCPGWVRTDMAGPKATKSPEEGAETPVYLALLPPDAEGPHGQFVSEKRVEQW
B8: NOL12 (protein, UniProt Q9UGY1 1-213, looked up)
Nucleolar protein 12: MGRNKKKKRDGDDRRPRLVLSFDEEKRREYLTGFHKRKVERKKAAIEEIKQRLKEEQRKLREERHQEYLKMLAEREEALEEADELDRLVTAKTESVQYDHPNHTVTVTTISDLDLSGARLLGLTPPEGGAGDRSEEEASSTEKPTKALPRKSRDPLLSQRISSLTASLHAHSRKKVKRKHPRRAQDSKKPPRAPRTSKAQRRRLTGKARHSGE
B9: FAM3B (protein, UniProt P58499 30-235, looked up)
Protein FAM3B: ELIPDAPLSSAAYSIRSIGERPVLKAPVPKRQKCDHWTPCPSDTYAYRLLSGGGRSKYAKICFEDNLLMGEQLGNVARGINIAIVNYVTGNVTATRCFDMYEGDNSGPMTKFIQSAAPKSLLFMVTYDDGSTRLNNDAKNAIEALGSKEIRNMKFRSSWVFIAAKGLELPSEIQREKINHSDAKNNRYSGWPAEIQIEGCIPKERS
B10: PPM1A (protein, UniProt P35813 2-382, looked up)
Protein phosphatase 1A: GAFLDKPKMEKHNAQGQGNGLRYGLSSMQGWRVEMEDAHTAVIGLPSGLESWSFFAVYDGHAGSQVAKYCCEHLLDHITNNQDFKGSAGAPSVENVKNGIRTGFLEIDEHMRVMSEKKHGADRSGSTAVGVLISPQHTYFINCGDSRGLLCRNRKVHFFTQDHKPSNPLEKERIQNAGGSVMIQRVNGSLAVSRALGDFDYKCVHGKGPTEQLVSPEPEVHDIERSEEDDQFIILACDGIWDVMGNEELCDFVRSRLEVTDDLEKVCNEVVDTCLYKGSRDNMSVILICFPNAPKVSPEAVKKEAELDKYLECRVEEIIKKQGEGVPDLVHVMRTLASENIPSLPPGGELASKRNVIEAVYNRLNPYKNDDTDSTSTDDMW
B11: HRG (protein, UniProt P04196 19-525, looked up)
Histidine-rich glycoprotein: VSPTDCSAVEPEAEKALDLINKRRRDGYLFQLLRIADAHLDRVENTTVYYLVLDVQESDCSVLSRKYWNDCEPPDSRRPSEIVIGQCKVIATRHSHESQDLRVIDFNCTTSSVSSALANTKDSPVLIDFFEDTERYRKQANKALEKYKEENDDFASFRVDRIERVARVRGGEGTGYFVDFSVRNCPRHHFPRHPNVFGFCRADLFYDVEALDLESPKNLVINCEVFDPQEHENINGVPPHLGHPFHWGGHERSSTTKPPFKPHGSRDHHHPHKPHEHGPPPPPDERDHSHGPPLPQGPPPLLPMSCSSCQHATFGTNGAQRHSHNNNSSDLHPHKHHSHEQHPHGHHPHAHHPHEHDTHRQHPHGHHPHGHHPHGHHPHGHHPHGHHPHCHDFQDYGPCDPPPHNQGHCCHGHGPPPGHLRRRGPGKGPRPFHCRQIGSVYRLPPLRKGEVLPLPEANFPSFPLPHHKHPLKPDNQPFPQSVSESCPGKFKSGFPQVSMFFTHTFPK
B12: NAGAB (protein, UniProt P17050 18-411, looked up)
Alpha-N-acetylgalactosaminidas …: LDNGLLQTPPMGWLAWERFRCNINCDEDPKNCISEQLFMEMADRMAQDGWRDMGYTYLNIDDCWIGGRDASGRLMPDPKRFPHGIPFLADYVHSLGLKLGIYADMGNFTCMGYPGTTLDKVVQDAQTFAEWKVDMLKLDGCFSTPEERAQGYPKMAAALNATGRPIAFSCSWPAYEGGLPPRVNYSLLADICNLWRNYDDIQDSWWSVLSILNWFVEHQDILQPVAGPGHWNDPDMLLIGNFGLSLEQSRAQMALWTVLAAPLLMSTDLRTISAQNMDILQNPLMIKINQDPLGIQGRRIHKEKSLIEVYMRPLSNKASALVFFSCRTDMPYRYHSSLGQLNFTGSVIYEAQDVYSGDIISGLRDETNFTVIINPSGVVMWYLYPIKNLEMSQQ

Assay: Saliva proteomics: biomarker quantification by mass spectrometry SWATH in participants at risk of heart failure vs controls
Set-up: species or system human
Conditions: for AtRisk average: 'at risk' of heart failure group mean; for Control average: control group mean
[1] = differential expression (fold) control vs 'at risk' group, saliva
[2] = saliva, mass spectrometry SWATH quantification, 20 samples
[3] = differential expression (fold) between control and at-risk averages, saliva
[4] = saliva, mass spectrometry SWATH, 20 samples
[5] = saliva, mass spectrometry SWATH quantification

| Molecule | Control vs Risk [1] | AtRisk average [2] | Control average [2] | Control vs Risk [3] | AtRisk average [4] | Control average [4] | further results |
| --- | --- | --- | --- | --- | --- | --- | --- |
| B1 | 1.91 | 2,543,935 ng/ml | 1,329,364 ng/ml |  |  |  |  |
| B2 | 1.92 | 48,948 ng/ml | 93,932 ng/ml |  |  |  |  |
| B3 | 1.92 | 50,162 ng/ml | 96,101 ng/ml |  |  |  |  |
| B4 |  |  |  | 1.81 | 82,739 ng/ml | 45,823 ng/ml |  |
| B5 |  |  |  | 1.84 | 176,637 ng/ml | 95,775 ng/ml |  |
| B6 |  |  |  | 1.76 | 107,714 ng/ml | 61,311 ng/ml |  |
| B7 |  |  |  | 1.81 | 801,903 ng/ml | 442,719 ng/ml |  |
| B8 |  |  |  |  |  |  | Control vs Risk (differential expression (fold) control vs 'at risk', printed as larger/smaller average whatever the direction): 4.81; AtRisk average [5]: 289,076 ng/ml; Control average [5]: 60,052 ng/ml |
| B9 |  |  |  | 1.81 | 949,144 ng/ml | 1,715,875 ng/ml |  |
| B10 |  |  |  | 1.87 | 16,721 ng/ml | 31,211 ng/ml |  |
| B11 | 1.90 | 942,991 ng/ml | 497,512 ng/ml |  |  |  |  |
| B12 |  |  |  | 1.89 | 57,000 ng/ml | 30,226 ng/ml |  |
